Source: US6475744 (GENERAL HOSPITAL CORPORATION A MASSACHUSETTS, dated 2002)
Results are given in words; binding and its absence hold for the method and conditions named. For some assays here: Binding seen in cells or lysates may run through a third protein. Some binding calls cover weakened binding; strength is not graded here. For some assays here: Sequences can lack the tags named with a protein.

The chains behind the UniProt entries cited, without tags or fusion partners.
UniProt O88529: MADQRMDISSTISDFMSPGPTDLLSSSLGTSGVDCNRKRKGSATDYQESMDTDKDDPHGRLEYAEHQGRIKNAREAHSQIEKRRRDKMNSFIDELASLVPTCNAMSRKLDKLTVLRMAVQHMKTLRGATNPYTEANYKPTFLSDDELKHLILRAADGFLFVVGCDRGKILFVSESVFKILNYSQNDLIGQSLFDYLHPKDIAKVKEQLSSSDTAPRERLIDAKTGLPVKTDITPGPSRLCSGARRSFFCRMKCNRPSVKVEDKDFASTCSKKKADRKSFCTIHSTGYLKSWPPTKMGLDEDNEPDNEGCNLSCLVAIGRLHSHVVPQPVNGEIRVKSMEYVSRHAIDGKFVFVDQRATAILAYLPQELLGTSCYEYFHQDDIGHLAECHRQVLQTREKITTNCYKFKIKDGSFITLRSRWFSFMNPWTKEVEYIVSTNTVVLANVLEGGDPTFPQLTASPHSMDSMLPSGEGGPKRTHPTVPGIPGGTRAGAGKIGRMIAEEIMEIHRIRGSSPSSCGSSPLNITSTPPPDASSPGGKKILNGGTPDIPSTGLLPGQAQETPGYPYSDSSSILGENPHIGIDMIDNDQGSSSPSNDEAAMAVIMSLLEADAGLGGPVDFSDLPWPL
UniProt O35973: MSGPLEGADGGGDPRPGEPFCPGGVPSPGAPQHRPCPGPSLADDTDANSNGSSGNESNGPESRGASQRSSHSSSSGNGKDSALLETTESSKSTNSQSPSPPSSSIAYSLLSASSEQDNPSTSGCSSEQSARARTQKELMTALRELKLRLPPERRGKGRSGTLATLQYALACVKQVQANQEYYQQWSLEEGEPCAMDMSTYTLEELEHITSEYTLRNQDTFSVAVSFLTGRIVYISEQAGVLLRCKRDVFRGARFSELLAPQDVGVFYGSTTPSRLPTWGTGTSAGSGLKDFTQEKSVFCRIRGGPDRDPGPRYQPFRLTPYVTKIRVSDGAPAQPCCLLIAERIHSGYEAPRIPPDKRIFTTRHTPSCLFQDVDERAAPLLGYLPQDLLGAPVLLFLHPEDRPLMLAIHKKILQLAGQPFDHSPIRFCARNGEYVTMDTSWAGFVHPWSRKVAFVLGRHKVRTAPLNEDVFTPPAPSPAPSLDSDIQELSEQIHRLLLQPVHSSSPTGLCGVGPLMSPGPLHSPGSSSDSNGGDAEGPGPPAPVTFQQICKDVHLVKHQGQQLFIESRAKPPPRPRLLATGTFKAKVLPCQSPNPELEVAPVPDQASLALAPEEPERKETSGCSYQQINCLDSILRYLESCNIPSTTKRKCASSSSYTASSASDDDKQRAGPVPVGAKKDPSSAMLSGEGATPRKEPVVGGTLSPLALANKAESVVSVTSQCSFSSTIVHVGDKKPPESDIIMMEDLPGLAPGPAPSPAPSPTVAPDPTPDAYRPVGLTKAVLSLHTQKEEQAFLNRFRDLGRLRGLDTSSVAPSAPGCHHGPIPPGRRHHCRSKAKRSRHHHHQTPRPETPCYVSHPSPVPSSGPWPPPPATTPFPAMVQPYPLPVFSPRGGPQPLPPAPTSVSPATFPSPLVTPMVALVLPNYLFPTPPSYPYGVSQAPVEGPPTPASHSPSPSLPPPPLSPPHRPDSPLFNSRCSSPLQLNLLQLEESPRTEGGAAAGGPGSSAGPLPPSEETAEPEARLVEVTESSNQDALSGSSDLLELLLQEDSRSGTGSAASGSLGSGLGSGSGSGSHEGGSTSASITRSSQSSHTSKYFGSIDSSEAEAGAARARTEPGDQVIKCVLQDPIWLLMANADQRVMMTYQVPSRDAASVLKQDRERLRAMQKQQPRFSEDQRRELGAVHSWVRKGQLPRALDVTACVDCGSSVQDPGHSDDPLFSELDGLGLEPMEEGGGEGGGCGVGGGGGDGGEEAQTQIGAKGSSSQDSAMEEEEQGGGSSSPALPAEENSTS

T1: mTIM-V5 (mouse, UniProt Q9R1X4 1-1197)
T1 construct: the construct was made from the coding region of AF071506; Printed once as 'mTIM-VS', read as V5; also called mTIM-VS
T1 sequence: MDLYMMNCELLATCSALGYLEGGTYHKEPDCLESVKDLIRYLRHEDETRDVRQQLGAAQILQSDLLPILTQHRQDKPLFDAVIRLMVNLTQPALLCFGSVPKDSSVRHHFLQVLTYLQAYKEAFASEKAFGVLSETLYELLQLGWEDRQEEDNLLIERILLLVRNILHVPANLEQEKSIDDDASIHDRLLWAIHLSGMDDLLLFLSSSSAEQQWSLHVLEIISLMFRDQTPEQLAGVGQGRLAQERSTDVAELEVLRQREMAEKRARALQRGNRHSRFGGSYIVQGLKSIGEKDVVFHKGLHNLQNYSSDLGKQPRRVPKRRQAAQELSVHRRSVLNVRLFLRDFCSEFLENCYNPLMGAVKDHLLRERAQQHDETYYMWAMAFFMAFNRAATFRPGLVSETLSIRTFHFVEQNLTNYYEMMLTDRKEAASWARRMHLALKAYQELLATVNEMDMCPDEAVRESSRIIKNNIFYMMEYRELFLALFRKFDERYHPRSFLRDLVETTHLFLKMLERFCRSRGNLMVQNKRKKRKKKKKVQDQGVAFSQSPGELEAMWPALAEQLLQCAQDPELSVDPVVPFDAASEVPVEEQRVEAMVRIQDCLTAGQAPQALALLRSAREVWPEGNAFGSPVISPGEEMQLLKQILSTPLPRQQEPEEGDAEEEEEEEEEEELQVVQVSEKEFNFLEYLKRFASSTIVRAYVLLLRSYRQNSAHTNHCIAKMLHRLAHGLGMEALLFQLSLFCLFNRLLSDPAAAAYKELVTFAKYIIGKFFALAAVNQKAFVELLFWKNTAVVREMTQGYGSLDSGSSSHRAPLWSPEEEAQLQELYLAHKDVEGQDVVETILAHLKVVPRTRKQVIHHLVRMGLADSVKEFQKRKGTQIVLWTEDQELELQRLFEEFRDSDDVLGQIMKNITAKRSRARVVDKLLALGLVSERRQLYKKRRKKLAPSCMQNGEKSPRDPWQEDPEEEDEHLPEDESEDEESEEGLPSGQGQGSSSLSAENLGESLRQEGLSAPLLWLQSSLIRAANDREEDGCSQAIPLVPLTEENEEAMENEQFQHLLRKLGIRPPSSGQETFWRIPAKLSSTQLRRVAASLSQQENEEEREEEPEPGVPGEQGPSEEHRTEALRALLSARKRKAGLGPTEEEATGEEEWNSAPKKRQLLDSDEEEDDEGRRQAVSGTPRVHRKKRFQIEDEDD

T2: mPER3-V5 (mouse) (UniProt O70361)
T2 sequence (looked up): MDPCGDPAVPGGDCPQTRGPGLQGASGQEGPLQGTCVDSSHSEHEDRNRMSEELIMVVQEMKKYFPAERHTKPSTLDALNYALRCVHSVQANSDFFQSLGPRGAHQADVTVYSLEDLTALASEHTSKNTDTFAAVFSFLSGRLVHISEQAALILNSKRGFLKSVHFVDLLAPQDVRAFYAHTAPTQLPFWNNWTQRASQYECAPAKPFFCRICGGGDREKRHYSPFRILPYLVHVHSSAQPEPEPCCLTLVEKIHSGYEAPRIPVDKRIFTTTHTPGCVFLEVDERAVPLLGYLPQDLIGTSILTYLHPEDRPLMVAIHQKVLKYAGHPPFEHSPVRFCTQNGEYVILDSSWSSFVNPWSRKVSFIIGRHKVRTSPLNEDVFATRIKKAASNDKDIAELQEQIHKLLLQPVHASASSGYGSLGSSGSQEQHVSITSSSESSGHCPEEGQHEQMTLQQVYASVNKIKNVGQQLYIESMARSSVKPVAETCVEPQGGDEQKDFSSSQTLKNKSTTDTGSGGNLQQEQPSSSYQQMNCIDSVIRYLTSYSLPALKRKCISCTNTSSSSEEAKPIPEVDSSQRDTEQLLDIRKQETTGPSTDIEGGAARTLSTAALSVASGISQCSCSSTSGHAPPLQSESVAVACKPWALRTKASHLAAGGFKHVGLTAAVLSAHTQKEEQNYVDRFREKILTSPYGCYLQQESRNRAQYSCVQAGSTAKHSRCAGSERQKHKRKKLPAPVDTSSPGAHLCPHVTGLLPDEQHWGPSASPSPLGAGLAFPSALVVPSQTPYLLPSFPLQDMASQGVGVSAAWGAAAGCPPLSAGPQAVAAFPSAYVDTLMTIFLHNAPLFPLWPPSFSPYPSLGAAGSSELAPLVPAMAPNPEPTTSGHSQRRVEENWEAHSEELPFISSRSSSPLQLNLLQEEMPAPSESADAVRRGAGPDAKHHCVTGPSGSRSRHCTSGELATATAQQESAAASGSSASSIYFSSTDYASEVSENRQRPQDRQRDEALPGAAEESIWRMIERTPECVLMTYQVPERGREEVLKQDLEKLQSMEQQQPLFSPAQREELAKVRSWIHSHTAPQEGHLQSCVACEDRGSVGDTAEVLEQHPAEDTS


Assays:
[1] = molecular target: syrian hamster (sh)BMAL1 (syrian hamster, UniProt O88529 1-626); test: yeast two-hybrid
[2] = molecular target: mPER1-V5 (mouse) (UniProt O35973); test: co-immunoprecipitation from co-transfected COS7 cells (conclusion of the example)
[3] = molecular target: T1, mTIM-V5; test: as above
[4] = molecular target: T2, mPER3-V5 (mouse); test: as above
[5] = molecular target: mPER1-V5 (mouse) (UniProt O35973); test: co-immunoprecipitation from co-transfected COS7 cells, anti-HA IP, anti-V5 blot
[6] = molecular target: T2, mPER3-V5 (mouse); test: as above
[7] = molecular target: T1, mTIM-V5; test: as above
Protocol: Subsequently, the beads were washed four times (400 μl binding buffer for 10 min. per wash), mixed with 5 μl of 4×sodium dodecyl sulfate (SDS) gel loading buffer, boiled, and centrifuged. The supernatant was analyzed by SDS-polyacrylamide gel electrophoresis (PAGE) and western blotted as follows. Total protein (5 μg) from COS7 cells was extracted as described above, separated by SDS-PAGE, and transferred to a nitrocellulose membrane using a semi-dry blotting apparatus. Membranes were blocked with 5% non-fat milk. Blots were incubated with either the mouse anti-HA antibody (1:10,000) or the mouse anti-V5 antibody (1:5,000) overnight at 4EC. A goat anti-mouse horseradish peroxidase secondary antibody (1:10,000) was used in combination with enhanced chemiluminescence (NEN) to detect proteins.
Following detection of epitope-tagged proteins with one antibody, the blots were stripped in stripping buffer (62.5 mM Tris-HCl (pH 6.7), 100 mM 2-mercaptoethanol, 2% SDS) at 50EC for 30 minutes. The membrane was washed extensively (20 mM Tris, pH 7.6, 137 mM NaCl, 0.05% Tween-20) then blocked again and processed for detection of the second epitope-tagged protein.

[8] = molecular target: mPER1-V5 (mouse) (UniProt O35973); test: as above; remark: listed apart in the source
[9] = molecular target: T2, mPER3-V5 (mouse); test: as above; remark: listed apart in the source

Row | Molecule | binding [1] | binding [8] | binding [9] | binding [2] | binding [3] | binding [4] | binding [5] | binding [6] | binding [7]
1 | mCRY1 (from UniProt P97784 1-606) | binds |  |  |  |  |  |  |  | 
2 | mCRY1-HA (other, mouse, UniProt P97784 1-606, looked up, not shown: small tags and cut ends) MGVNAVHWFRKGLRLHDNPALKECIQGADTIRCVYILDPWFAGSSNVGINRWRFLLQCLEDLDANLRKLNSRLFVIRGQPADVFPRLFKEWNITKLSIEYDSEPFGKERDAAIKKLATEAGVEVIVRISHTLYDLDKIIELNGGQPPLTYKRFQTLVSKMEPLEMPADTITSDVIGKCMTPLSDDHDEKYGVPSLEELGFDTDGLSSAVWPGGETEALTRLERHLERKAWVANFERPRMNANSLLASPTGLSPYLRFGCLSCRLFYFKLTDLYKKVKKNSSPPLSLYGQLLWREFFYTAATNNPRFDKMEGNPICVQIPWDKNPEALAKWAEGRTGFPWIDAIMTQLRQEGWIHHLARHAVACFLTRGDLWISWEEGMKVFEELLLDADWSINAGSWMWLSCSSFFQQFFHCYCPVGFGRRTDPNGDYIRRYLPVLRGFPAKYIYDPWNAPEGIQKVAKCLIGVNYPKPMVNHAEASRLNIERMKQIYQQLSRYRGLGLLASVPSNSNGNGGLMGYAPGENVPSCSSSGNGGLMGYAPGENVPSCSGGNCSQGSGILHYAHGDSQQTHSLKQGRSSAGTGLSSGKRPSQEEDAQSVGPKVQRQSSN |  |  |  | binds | binds | binds | binds | binds | binds

Continued, in another order:

Row | binding [1] | binding [8] | binding [9] | Molecule | binding [2] | binding [3] | binding [4] | binding [5] | binding [6] | binding [7]
3 |  | binds | binds | mCRY2-HA (protein, mouse, UniProt Q9R194 1-592, looked up, not shown: small tags and cut ends) MAAAAVVAATVPAQSMGADGASSVHWFRKGLRLHDNPALLAAVRGARCVRCVYILDPWFAASSSVGINRWRFLLQSLEDLDTSLRKLNSRLFVVRGQPADVFPRLFKEWGVTRLTFEYDSEPFGKERDAAIMKMAKEAGVEVVTENSHTLYDLDRIIELNGQKPPLTYKRFQALISRMELPKKPAVAVSSQQMESCRAEIQENHDDTYGVPSLEELGFPTEGLGPAVWQGGETEALARLDKHLERKAWVANYERPRMNANSLLASPTGLSPYLRFGCLSCRLFYYRLWDLYKKVKRNSTPPLSLFGQLLWREFFYTAATNNPRFDRMEGNPICIQIPWDRNPEALAKWAEGKTGFPWIDAIMTQLRQEGWIHHLARHAVACFLTRGDLWVSWESGVRVFDELLLDADFSVNAGSWMWLSCSAFFQQFFHCYCPVGFGRRTDPSGDYIRRYLPKLKGFPSRYIYEPWNAPESVQKAAKCIIGVDYPRPIVNHAETSRLNIERMKQIYQQLSRYRGLCLLASVPSCVEDLSHPVAEPGSSQAGSISNTGPRALSSGPASPKRKLEAAEEPPGEELTKRARVTEMPTQEPASKDS | binds | binds | binds |  |  | binds
4 | binds |  |  | mCRY2 (protein, mouse, UniProt Q9R194 1-592, looked up) MAAAAVVAATVPAQSMGADGASSVHWFRKGLRLHDNPALLAAVRGARCVRCVYILDPWFAASSSVGINRWRFLLQSLEDLDTSLRKLNSRLFVVRGQPADVFPRLFKEWGVTRLTFEYDSEPFGKERDAAIMKMAKEAGVEVVTENSHTLYDLDRIIELNGQKPPLTYKRFQALISRMELPKKPAVAVSSQQMESCRAEIQENHDDTYGVPSLEELGFPTEGLGPAVWQGGETEALARLDKHLERKAWVANYERPRMNANSLLASPTGLSPYLRFGCLSCRLFYYRLWDLYKKVKRNSTPPLSLFGQLLWREFFYTAATNNPRFDRMEGNPICIQIPWDRNPEALAKWAEGKTGFPWIDAIMTQLRQEGWIHHLARHAVACFLTRGDLWVSWESGVRVFDELLLDADFSVNAGSWMWLSCSAFFQQFFHCYCPVGFGRRTDPSGDYIRRYLPKLKGFPSRYIYEPWNAPESVQKAAKCIIGVDYPRPIVNHAETSRLNIERMKQIYQQLSRYRGLCLLASVPSCVEDLSHPVAEPGSSQAGSISNTGPRALSSGPASPKRKLEAAEEPPGEELTKRARVTEMPTQEPASKDS |  |  |  |  |  | 
